In article PMC3213103:
Results are given in words; binding and its absence hold for the method and conditions named. Binding seen in cells or lysates may run through a third protein. For some of these results: Binding can be weak; no strength is given. For some of these results: Sequences can lack the tags named with a protein.

Key:
ULBP1 = target: T1, ULBP1 (UniProt Q9BZM6); experiment: co-IP; 35S pulse-chase labelled U373 cells expressing ULBP1 and U21; Triton X-100 lysates (1% Triton X-100, 10 mM Tris-HCl pH 7.4, 150 mM NaCl); U21 or ULBP1 recovered, SDS-PAGE of the labelled proteins; with or without leupeptin and folimycin
T1 sequence: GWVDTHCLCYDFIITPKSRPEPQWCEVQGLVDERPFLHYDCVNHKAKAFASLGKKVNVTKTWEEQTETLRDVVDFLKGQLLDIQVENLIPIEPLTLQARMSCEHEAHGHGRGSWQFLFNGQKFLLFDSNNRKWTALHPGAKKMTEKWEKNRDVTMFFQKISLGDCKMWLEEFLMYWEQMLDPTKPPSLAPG

[1] = target: human herpesvirus-7 (HHV-7) U21 gene product (human herpesvirus-7 (HHV-7)); experiment: as above
[2] = target: human herpesvirus-7 (HHV-7) U21 gene product (human herpesvirus-7 (HHV-7)); experiment: co-IP

In the case of “human herpesvirus-7 (HHV-7) U21 gene product”, the binding (ULBP1) is reported as “no binding (only in Triton X-100 lysates)”.

B1: ULBP1 (protein, UniProt Q9BZM6 26-216)
chain: GWVDTHCLCYDFIITPKSRPEPQWCEVQGLVDERPFLHYDCVNHKAKAFASLGKKVNVTKTWEEQTETLRDVVDFLKGQLLDIQVENLIPIEPLTLQARMSCEHEAHGHGRGSWQFLFNGQKFLLFDSNNRKWTALHPGAKKMTEKWEKNRDVTMFFQKISLGDCKMWLEEFLMYWEQMLDPTKPPSLAPG
With B1 the binding [1] was “no binding (only in Triton X-100 lysates)” and the binding [2] was “binds”.

B2: HA-tagged ULBP1 (protein, UniProt Q9BZM6 26-216)
chain: GWVDTHCLCYDFIITPKSRPEPQWCEVQGLVDERPFLHYDCVNHKAKAFASLGKKVNVTKTWEEQTETLRDVVDFLKGQLLDIQVENLIPIEPLTLQARMSCEHEAHGHGRGSWQFLFNGQKFLLFDSNNRKWTALHPGAKKMTEKWEKNRDVTMFFQKISLGDCKMWLEEFLMYWEQMLDPTKPPSLAPG
With B2 the binding [2] was “binds”.
